Structures can show the parent of a compound that is named as a salt. This is one part of the list. Repeats in this data set agree poorly, so a single value says little.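 A screen tested FDA-approved drugs combined with one-eighth-MIC colistin against a clinical mcr-1-positive, multidrug-resistant E. coli isolate, measuring OD600 at 24 h. Controls were untreated bacteria (growth) and broth alone (blank). An OD600 under 0.2 marked a combination as active.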
System: Escherichia coli 42 (mcr-1-positive clinical isolate)
Experiment: OD600 after 24 h growth with compound plus colistin (absorbance units (OD600)); higher = more bacterial growth (less inhibition)
Conditions: first compound 25 µM; colistin concentration 0.5 ug/mL; incubation time 24 h; 37 °C

OD600, inactive:
CC[C@H]1[C@@H](O)[C@@H]2[C@H](CC[C@]3(C)[C@@H]([C@H](C)CCC(=O)O)CC[C@@H]23)[C@@]2(C)CC[C@@H](O)C[C@@H]12 [Obeticholic Acid] + CCC(C)CCCC(=O)N[C@@H](CCN)C(=O)N[C@H](C(=O)N[C@@H](CCN)C(=O)N[C@H]1CCNC(=O)[C@H]([C@@H](C)O)NC(=O)[C@H](CCN)NC(=O)[C@H](CCN)NC(=O)[C@H](CC(C)C)NC(=O)[C@@H](CC(C)C)NC(=O)[C@H](CCN)NC1=O)[C@@H](C)O [colistin] 1.09, COc1nc2ccc(Br)cc2cc1[C@@H](c1ccccc1)[C@@](O)(CCN(C)C)c1cccc2ccccc12 [Bedaquiline] + CCC(C)CCCC(=O)N[C@@H](CCN)C(=O)N[C@H](C(=O)N[C@@H](CCN)C(=O)N[C@H]1CCNC(=O)[C@H]([C@@H](C)O)NC(=O)[C@H](CCN)NC(=O)[C@H](CCN)NC(=O)[C@H](CC(C)C)NC(=O)[C@@H](CC(C)C)NC(=O)[C@H](CCN)NC1=O)[C@@H](C)O [colistin] 0.947, CC(C)(C)NC[C@H](O)COc1nsnc1N1CCOCC1 [(S)-Timolol Maleate] + CCC(C)CCCC(=O)N[C@@H](CCN)C(=O)N[C@H](C(=O)N[C@@H](CCN)C(=O)N[C@H]1CCNC(=O)[C@H]([C@@H](C)O)NC(=O)[C@H](CCN)NC(=O)[C@H](CCN)NC(=O)[C@H](CC(C)C)NC(=O)[C@@H](CC(C)C)NC(=O)[C@H](CCN)NC1=O)[C@@H](C)O [colistin] 0.846, Cc1ncc([N+](=O)[O-])n1CC(C)O (centres undefined) [Secnidazole] + CCC(C)CCCC(=O)N[C@@H](CCN)C(=O)N[C@H](C(=O)N[C@@H](CCN)C(=O)N[C@H]1CCNC(=O)[C@H]([C@@H](C)O)NC(=O)[C@H](CCN)NC(=O)[C@H](CCN)NC(=O)[C@H](CC(C)C)NC(=O)[C@@H](CC(C)C)NC(=O)[C@H](CCN)NC1=O)[C@@H](C)O [colistin] 0.989, CC(NCCc1ccc(O)cc1)C(O)c1ccc(O)cc1 (centres undefined) [Ritodrine hydrochloride] + CCC(C)CCCC(=O)N[C@@H](CCN)C(=O)N[C@H](C(=O)N[C@@H](CCN)C(=O)N[C@H]1CCNC(=O)[C@H]([C@@H](C)O)NC(=O)[C@H](CCN)NC(=O)[C@H](CCN)NC(=O)[C@H](CC(C)C)NC(=O)[C@@H](CC(C)C)NC(=O)[C@H](CCN)NC1=O)[C@@H](C)O [colistin] 0.763, NC(N)=Nc1nc(CSCC/C(N)=N/S(N)(=O)=O)cs1 [Famotidine] + CCC(C)CCCC(=O)N[C@@H](CCN)C(=O)N[C@H](C(=O)N[C@@H](CCN)C(=O)N[C@H]1CCNC(=O)[C@H]([C@@H](C)O)NC(=O)[C@H](CCN)NC(=O)[C@H](CCN)NC(=O)[C@H](CC(C)C)NC(=O)[C@@H](CC(C)C)NC(=O)[C@H](CCN)NC1=O)[C@@H](C)O [colistin] 0.968, NCCS [2-Aminoethanethiol] + CCC(C)CCCC(=O)N[C@@H](CCN)C(=O)N[C@H](C(=O)N[C@@H](CCN)C(=O)N[C@H]1CCNC(=O)[C@H]([C@@H](C)O)NC(=O)[C@H](CCN)NC(=O)[C@H](CCN)NC(=O)[C@H](CC(C)C)NC(=O)[C@@H](CC(C)C)NC(=O)[C@H](CCN)NC1=O)[C@@H](C)O [colistin] 0.97, CC(C)(O)c1ccccc1CC[C@@H](SCC1(CC(=O)O)CC1)c1cccc(/C=C/c2ccc3ccc(Cl)cc3n2)c1 [Montelukast sodium] + CCC(C)CCCC(=O)N[C@@H](CCN)C(=O)N[C@H](C(=O)N[C@@H](CCN)C(=O)N[C@H]1CCNC(=O)[C@H]([C@@H](C)O)NC(=O)[C@H](CCN)NC(=O)[C@H](CCN)NC(=O)[C@H](CC(C)C)NC(=O)[C@@H](CC(C)C)NC(=O)[C@H](CCN)NC1=O)[C@@H](C)O [colistin] 1.04, CC1(C)O[C@@H]2C[C@H]3[C@@H]4CCC5=CC(=O)C=C[C@]5(C)[C@@]4(F)[C@@H](O)C[C@]3(C)[C@]2(C(=O)CO)O1 [Triamcinolone acetonide] + CCC(C)CCCC(=O)N[C@@H](CCN)C(=O)N[C@H](C(=O)N[C@@H](CCN)C(=O)N[C@H]1CCNC(=O)[C@H]([C@@H](C)O)NC(=O)[C@H](CCN)NC(=O)[C@H](CCN)NC(=O)[C@H](CC(C)C)NC(=O)[C@@H](CC(C)C)NC(=O)[C@H](CCN)NC1=O)[C@@H](C)O [colistin] 1.04

Source: the supplement of paper PMC11546906
